Experimental data: paper PMC10592355
Results are given in words; binding and its absence hold for the method and conditions named. Binding seen in cells or lysates may run through a third protein. Some binding calls cover weakened binding; strength is not graded here.

The chains behind the UniProt entries cited, without tags or fusion partners.
UniProt Q13547: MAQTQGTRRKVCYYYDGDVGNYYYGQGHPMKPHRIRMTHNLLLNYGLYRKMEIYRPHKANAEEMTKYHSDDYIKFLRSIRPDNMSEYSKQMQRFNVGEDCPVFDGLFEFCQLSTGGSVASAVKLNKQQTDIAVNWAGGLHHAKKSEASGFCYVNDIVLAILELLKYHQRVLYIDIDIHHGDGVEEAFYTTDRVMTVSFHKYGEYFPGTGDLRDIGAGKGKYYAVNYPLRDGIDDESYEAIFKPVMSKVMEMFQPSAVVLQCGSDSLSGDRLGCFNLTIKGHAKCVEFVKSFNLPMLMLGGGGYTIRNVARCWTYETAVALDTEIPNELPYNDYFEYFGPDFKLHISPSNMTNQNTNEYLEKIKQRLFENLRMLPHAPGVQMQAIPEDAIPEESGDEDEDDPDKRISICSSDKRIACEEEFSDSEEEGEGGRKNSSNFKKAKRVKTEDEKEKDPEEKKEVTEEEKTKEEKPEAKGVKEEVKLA
UniProt Q14839: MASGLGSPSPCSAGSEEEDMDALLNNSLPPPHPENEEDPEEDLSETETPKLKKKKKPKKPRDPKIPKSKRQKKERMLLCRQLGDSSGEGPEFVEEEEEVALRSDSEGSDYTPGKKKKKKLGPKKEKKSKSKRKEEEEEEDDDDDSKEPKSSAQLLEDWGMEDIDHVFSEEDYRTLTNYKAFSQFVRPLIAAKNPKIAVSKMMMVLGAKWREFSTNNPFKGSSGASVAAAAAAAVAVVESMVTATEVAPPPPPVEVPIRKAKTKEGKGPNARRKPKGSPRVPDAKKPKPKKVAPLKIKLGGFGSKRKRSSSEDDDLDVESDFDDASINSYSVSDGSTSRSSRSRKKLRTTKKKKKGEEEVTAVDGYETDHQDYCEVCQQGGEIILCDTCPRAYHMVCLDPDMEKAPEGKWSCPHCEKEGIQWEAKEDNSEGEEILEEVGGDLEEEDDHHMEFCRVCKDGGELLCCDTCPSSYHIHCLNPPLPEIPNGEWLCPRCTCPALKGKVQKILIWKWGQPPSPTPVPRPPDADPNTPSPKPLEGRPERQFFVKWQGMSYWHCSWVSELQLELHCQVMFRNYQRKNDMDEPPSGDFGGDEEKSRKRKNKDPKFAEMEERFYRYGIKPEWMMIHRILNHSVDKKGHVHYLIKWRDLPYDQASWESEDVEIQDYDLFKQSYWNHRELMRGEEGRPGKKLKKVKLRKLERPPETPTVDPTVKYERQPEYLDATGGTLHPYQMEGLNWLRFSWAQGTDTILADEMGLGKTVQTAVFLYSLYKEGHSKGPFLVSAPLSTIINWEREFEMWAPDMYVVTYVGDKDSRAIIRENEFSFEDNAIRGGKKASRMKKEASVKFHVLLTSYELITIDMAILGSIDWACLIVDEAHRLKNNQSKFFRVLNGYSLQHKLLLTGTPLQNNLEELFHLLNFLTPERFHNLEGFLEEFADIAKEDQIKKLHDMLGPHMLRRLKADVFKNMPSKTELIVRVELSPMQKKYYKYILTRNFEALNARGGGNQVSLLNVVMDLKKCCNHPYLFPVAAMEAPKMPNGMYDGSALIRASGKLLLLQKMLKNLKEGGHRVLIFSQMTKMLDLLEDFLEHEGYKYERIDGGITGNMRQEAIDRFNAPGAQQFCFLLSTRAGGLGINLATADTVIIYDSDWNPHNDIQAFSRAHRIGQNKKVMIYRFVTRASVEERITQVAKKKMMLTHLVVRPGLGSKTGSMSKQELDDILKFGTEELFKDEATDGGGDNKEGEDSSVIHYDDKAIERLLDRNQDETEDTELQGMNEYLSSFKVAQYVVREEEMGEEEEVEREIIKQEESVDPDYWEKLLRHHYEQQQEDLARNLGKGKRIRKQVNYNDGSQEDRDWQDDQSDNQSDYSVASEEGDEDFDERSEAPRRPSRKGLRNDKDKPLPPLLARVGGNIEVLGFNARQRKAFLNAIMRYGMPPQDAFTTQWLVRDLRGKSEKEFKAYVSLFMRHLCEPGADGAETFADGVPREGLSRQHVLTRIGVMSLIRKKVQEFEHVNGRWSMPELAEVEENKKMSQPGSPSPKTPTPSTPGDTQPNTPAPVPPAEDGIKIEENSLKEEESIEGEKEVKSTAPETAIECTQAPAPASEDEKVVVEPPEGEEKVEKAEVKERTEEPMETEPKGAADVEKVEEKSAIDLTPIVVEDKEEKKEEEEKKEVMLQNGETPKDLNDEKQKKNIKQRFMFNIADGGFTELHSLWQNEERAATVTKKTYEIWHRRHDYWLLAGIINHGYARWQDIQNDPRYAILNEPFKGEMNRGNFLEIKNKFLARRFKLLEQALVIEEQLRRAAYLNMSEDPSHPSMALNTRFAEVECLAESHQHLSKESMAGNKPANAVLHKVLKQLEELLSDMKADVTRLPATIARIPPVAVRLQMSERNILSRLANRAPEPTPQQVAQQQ
UniProt Q92769: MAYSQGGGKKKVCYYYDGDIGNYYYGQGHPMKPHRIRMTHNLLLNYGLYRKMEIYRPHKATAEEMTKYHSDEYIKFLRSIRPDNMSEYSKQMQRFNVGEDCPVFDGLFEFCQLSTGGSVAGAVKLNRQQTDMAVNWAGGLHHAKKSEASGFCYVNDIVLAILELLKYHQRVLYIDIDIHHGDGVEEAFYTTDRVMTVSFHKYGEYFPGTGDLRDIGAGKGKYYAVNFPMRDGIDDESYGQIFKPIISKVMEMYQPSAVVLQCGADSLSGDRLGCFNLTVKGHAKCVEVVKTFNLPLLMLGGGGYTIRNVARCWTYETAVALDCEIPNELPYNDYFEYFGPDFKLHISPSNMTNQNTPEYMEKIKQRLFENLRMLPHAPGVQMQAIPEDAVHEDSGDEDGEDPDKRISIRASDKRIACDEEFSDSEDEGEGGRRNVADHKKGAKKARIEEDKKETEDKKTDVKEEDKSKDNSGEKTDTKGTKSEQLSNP

What follows are substances tested against T1, tyrosyl-tRNA synthetase (TyrRS) (human (endogenous in HEK293)) (UniProt P54577) (assay: co-IP; HEK293 cell lysates mixed overnight with Protein G beads pre-incubated with anti-TyrRS antibody; washed 3 times with 100 mM NaCl, 50 mM Tris, pH 7.5, 0.1% Triton X-100, 5% glycerol; Western blot).
T1 sequence: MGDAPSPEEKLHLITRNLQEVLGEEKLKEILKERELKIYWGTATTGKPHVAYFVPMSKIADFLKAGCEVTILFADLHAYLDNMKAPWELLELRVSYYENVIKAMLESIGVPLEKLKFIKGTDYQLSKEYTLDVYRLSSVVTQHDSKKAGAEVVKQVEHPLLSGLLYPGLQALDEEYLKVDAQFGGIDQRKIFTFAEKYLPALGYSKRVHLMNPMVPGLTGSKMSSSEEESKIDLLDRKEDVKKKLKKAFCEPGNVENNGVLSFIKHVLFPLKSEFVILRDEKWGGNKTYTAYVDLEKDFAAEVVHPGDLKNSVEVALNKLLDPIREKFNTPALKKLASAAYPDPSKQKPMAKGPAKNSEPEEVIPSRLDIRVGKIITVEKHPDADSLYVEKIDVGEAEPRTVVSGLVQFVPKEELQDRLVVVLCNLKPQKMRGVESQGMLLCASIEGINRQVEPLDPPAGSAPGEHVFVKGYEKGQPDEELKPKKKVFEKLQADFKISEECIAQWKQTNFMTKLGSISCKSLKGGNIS

binding, binds:
HDAC1 (from UniProt Q13547 1-482), CHD4 (from UniProt Q14839 1-1912), HDAC2 (from UniProt Q92769 1-488)
